Values quoted from earlier work, collected in patent publication US9677045B2, “Microorganisms and methods for production of 4-hydroxybutyrate, 1,4-butanediol and related compounds” (priority 2012, dated 2017).
For at least one compound, name, drawing or mass did not settle the structure.

Key:
[1] = target: T1, L(+)-lactate dehydrogenase from A. eutrophus (R. eutropha ldhA) (Cupriavidus necator, UniProt Q07251); settings: compared with that on pyruvate; cited from earlier work
T1 sequence (Q07251 1-349): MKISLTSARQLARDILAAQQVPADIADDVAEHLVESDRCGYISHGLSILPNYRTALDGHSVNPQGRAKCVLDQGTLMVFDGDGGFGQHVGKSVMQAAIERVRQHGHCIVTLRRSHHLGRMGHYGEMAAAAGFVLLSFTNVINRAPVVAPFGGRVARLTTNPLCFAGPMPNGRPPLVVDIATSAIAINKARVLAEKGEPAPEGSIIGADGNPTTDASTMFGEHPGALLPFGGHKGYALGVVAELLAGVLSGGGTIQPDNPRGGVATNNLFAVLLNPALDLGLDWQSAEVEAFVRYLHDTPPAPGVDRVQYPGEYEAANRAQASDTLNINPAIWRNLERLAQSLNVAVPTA

[2] = test system: aminotransferase from Leishmania mexicana; settings: activity considered 100% on tyrosine; enzyme expressed in E. coli; cited from earlier work

Row | SMILES | Activity (%) of L(+)-lactate dehydrogenase from A. eutrophus [1] [%] | activity relative to tyrosine [2] [%]
1 | CC(=O)C(=O)O [Pyruvate] | 100.0 | 
2 | N[C@@H](CC(=O)O)C(=O)O [aspartate] |  | 30
3 | O=C(O)CC(=O)C(=O)O [Oxaloacetate] | 0.0 | 
